Residue numbers refer to the chain shown, from its start. Names may count otherwise. No constants are given. Whether binding was seen depends on the method and setting. In cells and extracts the contact can be indirect. Some results given as binding are weak or reduced against the parent protein; the word gives no strength.

The labels stand for the following.
B1: VC-Sld2 (protein, UniProt P34252 1-453)
chain: MYSFELDKLKIELKTWEHDFIDKNKREPTRDDIKSLRTVRQMYKQYSTLKKKQSLQRQKVDTQESVELPAHKKDHDEVVEIGPTPQVYGKAISIFDMNLSPIKPIYMTFTNNIDVNNDNSKTISNESSPRKTILLKSSPADRTLVAEPISSVKRQLNFQMLNASSTRTPTSSPCKNRNGKLVEIKKCSPTINPPLESGKPSGYYGPNSPLKLDEENIHLNISLNSSTKRRLQIAYPSLQKTPSKDQADISTSFSPSPLIRRPLTKSLIELAREHTEIVKEFGVLQEEDIEEEEEGEEGENGYDEKNHEDDFGLEDELIRPKVVKDIFQEDDDNDDSQAREDTFIRKRPKRRKVIRRLRDNDPETETAGFERDVHKELVKLKRRKVAEFLGSTSQISDTEFEHDPEASSGVVSSEQKPTAKRKGRKKYNLVSNNFRRLKLPKKNRFSNGRWGRR
B2: VC-sld2-T84A (protein, UniProt P34252 1-453)
chain: B1 chain with T84A
B3: Sld2-VC (protein, UniProt P34252 1-453)
chain: B1 chain

In this experiment the target is T1, Dpb11-VN (S. cerevisiae) (UniProt P47027).
T1 sequence: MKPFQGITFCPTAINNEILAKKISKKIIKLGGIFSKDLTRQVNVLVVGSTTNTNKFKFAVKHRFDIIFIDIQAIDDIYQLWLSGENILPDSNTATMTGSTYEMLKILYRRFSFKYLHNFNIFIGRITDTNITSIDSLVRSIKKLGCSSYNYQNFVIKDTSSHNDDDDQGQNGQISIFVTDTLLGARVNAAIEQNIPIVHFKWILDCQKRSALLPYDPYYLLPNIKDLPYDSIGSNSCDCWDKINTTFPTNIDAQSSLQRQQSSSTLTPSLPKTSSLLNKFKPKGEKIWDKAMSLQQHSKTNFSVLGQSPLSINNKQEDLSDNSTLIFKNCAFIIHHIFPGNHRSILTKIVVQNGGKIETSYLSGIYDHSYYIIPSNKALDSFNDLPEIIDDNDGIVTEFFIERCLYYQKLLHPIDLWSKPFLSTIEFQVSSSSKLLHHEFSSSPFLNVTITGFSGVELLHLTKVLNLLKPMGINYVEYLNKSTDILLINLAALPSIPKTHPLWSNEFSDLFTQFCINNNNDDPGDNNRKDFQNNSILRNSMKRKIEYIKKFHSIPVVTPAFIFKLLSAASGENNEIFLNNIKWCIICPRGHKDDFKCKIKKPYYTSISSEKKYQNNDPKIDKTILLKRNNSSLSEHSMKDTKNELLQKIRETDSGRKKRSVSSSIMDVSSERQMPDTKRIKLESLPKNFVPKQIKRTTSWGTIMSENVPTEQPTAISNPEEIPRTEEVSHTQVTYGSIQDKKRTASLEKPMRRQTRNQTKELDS
Description: split reporter; split-Venus (VN/VC) fluorescence measured by flow cytometry in log-phase yeast cells grown in YPD at 30 °C; background of a strain with untagged SLD2 subtracted; the VN/VC tags stabilize the interaction. For orientation: Flow cytometry measures light scatter and fluorescence of single cells or particles in a stream.
For the molecule B1, the binding result is reported as “binds”.
To B2 belongs “no binding”.
B3: the binding entry is “binds”.

For the origin of these results see PMC9674678.
